Values of other authors as cited in patent US9320772B2, “Herbal composition for treating anxiety related conditions” (OPMOP LTD., priority 2010, dated 2016).
At least one structure is not confirmed: it was looked up by name or label, or the drawing left a doubt.

Amino acid sequences for entries named in this document (tags omitted).
UniProt P10608, whole entry: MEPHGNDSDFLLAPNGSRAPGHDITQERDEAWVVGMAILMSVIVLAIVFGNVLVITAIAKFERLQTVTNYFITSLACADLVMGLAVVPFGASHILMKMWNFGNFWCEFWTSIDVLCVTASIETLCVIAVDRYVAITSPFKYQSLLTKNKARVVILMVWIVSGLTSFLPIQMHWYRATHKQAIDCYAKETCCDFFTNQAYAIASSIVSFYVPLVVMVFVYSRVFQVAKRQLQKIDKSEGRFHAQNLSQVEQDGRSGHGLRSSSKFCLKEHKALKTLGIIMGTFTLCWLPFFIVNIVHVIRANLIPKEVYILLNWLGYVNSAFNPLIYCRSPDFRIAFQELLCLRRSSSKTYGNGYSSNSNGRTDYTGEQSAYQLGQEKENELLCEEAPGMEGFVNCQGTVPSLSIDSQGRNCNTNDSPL

Tests used:
[1] = system: HPA-axis; conditions: chronic treatment of rats; cited from earlier work
[2] = target: T1, β2-adrenergic receptor (Rattus norvegicus, UniProt P10608); conditions: rat glial cultures; cited from earlier work
T1 construct: reduce β2-adrenergic receptor sensitivity in rat glial cultures; endogenous in cells

| SMILES | Circulating ACTH and corticosterone levels [1] | β2-adrenergic receptor sensitivity [2] |
| --- | --- | --- |
| O=c1c(O[C@@H]2O[C@H](CO)[C@@H](O)[C@H](O)[C@H]2O)c(-c2ccc(O)c(O)c2)oc2cc(O)cc(O)c12 [isoquercitrin] | significantly reducing |  |
| O=c1c(O[C@@H]2O[C@H](CO)[C@H](O)[C@H](O)[C@H]2O)c(-c2ccc(O)c(O)c2)oc2cc(O)cc(O)c12 [hyperoside] | significantly reducing | reduce |
